# Results: the supplement of paper PMC10032668
# Protein sequences, listed by entry. Tags and fused reporters are not part of them.
# AP2A2, O94973, UniProt O94973, whole entry: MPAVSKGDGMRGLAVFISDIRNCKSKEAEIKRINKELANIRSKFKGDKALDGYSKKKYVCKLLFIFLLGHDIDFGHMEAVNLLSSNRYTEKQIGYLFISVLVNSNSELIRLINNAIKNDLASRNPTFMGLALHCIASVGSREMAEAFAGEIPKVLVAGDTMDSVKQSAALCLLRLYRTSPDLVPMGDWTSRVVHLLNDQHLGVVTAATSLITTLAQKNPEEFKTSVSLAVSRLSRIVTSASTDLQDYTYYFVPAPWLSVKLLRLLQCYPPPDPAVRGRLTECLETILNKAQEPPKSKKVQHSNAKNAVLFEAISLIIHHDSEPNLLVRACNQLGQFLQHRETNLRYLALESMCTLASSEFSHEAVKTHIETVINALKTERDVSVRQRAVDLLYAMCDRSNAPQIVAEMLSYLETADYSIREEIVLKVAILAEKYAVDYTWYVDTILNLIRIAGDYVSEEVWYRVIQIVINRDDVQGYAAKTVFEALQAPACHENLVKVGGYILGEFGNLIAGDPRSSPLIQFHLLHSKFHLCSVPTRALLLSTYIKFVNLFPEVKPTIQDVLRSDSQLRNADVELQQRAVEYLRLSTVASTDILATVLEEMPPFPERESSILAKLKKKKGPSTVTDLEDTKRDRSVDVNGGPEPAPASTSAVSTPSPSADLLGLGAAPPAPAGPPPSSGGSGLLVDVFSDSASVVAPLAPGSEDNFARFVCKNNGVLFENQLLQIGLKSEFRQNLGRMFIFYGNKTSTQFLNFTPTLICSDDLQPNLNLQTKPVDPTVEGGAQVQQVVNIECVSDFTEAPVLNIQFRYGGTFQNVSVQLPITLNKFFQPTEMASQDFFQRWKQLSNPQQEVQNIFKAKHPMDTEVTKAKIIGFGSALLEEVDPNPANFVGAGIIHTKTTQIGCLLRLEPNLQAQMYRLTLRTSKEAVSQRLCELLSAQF
# ATXN2, Q99700, UniProt Q99700, whole entry: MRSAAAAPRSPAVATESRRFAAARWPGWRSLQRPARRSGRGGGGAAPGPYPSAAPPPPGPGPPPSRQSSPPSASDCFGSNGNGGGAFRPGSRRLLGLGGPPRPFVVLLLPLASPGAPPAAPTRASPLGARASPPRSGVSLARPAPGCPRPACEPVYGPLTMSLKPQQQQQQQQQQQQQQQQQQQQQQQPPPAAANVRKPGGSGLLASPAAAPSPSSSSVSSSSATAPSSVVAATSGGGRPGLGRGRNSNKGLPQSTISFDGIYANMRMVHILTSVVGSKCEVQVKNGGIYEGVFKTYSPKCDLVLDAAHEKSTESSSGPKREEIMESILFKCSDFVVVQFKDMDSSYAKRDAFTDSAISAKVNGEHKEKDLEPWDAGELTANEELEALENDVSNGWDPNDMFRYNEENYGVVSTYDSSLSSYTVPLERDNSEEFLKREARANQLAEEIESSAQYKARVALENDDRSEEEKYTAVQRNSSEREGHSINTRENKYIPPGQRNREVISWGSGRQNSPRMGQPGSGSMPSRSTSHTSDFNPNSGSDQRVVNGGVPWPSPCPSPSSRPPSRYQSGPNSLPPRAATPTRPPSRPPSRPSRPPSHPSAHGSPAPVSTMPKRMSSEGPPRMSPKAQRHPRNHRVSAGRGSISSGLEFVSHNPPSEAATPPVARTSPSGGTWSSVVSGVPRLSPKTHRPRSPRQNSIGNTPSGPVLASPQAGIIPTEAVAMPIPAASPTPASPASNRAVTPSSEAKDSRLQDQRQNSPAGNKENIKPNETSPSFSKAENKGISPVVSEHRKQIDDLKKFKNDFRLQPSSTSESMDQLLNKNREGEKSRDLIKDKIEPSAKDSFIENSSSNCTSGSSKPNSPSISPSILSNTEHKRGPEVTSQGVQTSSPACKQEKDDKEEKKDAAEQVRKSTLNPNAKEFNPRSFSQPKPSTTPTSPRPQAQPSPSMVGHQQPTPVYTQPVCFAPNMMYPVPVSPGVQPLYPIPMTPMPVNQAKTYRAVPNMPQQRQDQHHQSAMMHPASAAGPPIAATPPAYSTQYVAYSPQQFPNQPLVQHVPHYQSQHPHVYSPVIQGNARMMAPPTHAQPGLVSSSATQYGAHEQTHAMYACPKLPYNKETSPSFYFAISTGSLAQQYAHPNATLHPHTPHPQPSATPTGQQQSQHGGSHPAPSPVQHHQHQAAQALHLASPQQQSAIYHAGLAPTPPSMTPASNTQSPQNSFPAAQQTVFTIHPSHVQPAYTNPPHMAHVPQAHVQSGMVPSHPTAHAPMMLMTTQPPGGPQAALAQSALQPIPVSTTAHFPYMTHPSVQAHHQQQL
# CCAR2, Q8N163, UniProt Q8N163, whole entry: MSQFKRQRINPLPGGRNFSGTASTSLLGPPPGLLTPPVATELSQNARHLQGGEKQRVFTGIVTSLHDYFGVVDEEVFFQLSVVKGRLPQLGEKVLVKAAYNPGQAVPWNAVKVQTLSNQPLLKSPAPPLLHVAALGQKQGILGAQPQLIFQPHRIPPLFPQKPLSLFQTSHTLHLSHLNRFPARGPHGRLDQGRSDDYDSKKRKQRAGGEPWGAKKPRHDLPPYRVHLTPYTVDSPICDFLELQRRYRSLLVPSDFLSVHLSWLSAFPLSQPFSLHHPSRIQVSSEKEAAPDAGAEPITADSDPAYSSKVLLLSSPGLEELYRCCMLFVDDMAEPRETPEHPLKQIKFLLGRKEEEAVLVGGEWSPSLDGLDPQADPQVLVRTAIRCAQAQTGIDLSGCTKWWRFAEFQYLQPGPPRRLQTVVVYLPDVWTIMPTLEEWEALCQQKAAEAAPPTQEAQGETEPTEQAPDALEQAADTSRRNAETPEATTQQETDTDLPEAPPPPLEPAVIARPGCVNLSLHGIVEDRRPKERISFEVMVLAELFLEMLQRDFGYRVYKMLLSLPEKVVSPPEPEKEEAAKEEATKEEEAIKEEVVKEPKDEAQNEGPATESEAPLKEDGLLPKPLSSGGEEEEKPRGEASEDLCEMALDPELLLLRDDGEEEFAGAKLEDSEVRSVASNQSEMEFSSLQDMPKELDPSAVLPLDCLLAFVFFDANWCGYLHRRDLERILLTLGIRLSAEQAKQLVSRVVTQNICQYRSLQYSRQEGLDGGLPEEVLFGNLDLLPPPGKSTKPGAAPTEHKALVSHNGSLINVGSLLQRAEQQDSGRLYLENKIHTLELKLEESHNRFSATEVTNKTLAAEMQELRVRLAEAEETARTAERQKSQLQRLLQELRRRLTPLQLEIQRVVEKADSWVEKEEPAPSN
# CHMP2B, Q9UQN3, UniProt Q9UQN3, whole entry: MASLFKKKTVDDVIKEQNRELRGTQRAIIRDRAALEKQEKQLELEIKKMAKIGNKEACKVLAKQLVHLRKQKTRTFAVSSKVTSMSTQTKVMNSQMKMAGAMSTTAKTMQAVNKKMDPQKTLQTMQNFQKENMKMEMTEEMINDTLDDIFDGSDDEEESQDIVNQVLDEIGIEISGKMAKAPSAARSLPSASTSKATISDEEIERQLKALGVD
# COA4, Q9NYJ1, UniProt Q9NYJ1, whole entry: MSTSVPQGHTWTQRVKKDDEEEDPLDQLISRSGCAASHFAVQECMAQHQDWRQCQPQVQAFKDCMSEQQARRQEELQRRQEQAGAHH
# CPSF6, Q16630, UniProt Q16630, whole entry: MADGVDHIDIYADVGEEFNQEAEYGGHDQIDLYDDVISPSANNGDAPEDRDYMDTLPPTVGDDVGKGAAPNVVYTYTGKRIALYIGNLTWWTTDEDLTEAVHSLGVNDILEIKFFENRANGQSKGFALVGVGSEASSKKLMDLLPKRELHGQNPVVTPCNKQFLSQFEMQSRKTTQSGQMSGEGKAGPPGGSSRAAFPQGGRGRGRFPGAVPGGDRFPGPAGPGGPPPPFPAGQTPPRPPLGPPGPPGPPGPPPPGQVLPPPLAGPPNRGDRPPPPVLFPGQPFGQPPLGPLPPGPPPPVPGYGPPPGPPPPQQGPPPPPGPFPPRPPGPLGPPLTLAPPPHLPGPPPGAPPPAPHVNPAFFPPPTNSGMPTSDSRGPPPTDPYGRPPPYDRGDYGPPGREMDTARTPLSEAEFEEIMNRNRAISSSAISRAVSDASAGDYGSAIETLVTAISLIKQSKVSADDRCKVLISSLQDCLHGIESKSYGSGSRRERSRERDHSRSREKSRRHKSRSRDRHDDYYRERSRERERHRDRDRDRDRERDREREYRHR
# This is one part of the list. The list holds hits alone, and they repeat only in part.
# B1: ASPN (peptide)
# chain: MVDNFYF
# Key:
# Assay in all cases: PRISMA enrichment of interactor (LFQ) in peptide spot vs all other peptide spots (log2 fold change); higher = stronger / more specific binding of the interactor to the peptide
# ACAA1, P09110 = biological target: ACAA1, P09110
# Protocol: (§1)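 PRISMA: 221 full-length sORF-encoded peptides (3-15 aa), plus SOS1/GLUT1 control peptides, were spot-synthesized on cellulose membranes in triplicate. Membranes were incubated with HEK293T lysate, and bound proteins were identified by LC-MS/MS with LFQ. Enrichment is the log2 fold change versus all other peptide spots; only significant interactors are listed (cutoff c=6, x0=2.8).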
# ACAT1, P24752 = biological target: ACAT1, P24752
# Protocol: as §1
# ACOT13, Q9NPJ3 = biological target: ACOT13, Q9NPJ3
# Protocol: as §1
# ACOT7, O00154 = biological target: ACOT7, O00154
# Protocol: as §1
# AIP, O00170 = biological target: AIP, O00170
# Protocol: as §1
# ALKBH2, Q6NS38 = biological target: ALKBH2, Q6NS38
# Protocol: as §1
# ALKBH5, Q6P6C2 = biological target: ALKBH5, Q6P6C2
# Protocol: as §1
# AMOT, Q4VCS5 = biological target: AMOT, Q4VCS5
# Protocol: as §1
# ANXA7, P20073 = biological target: ANXA7, P20073
# Protocol: as §1
# AP1B1, Q10567 = biological target: AP1B1, Q10567
# Protocol: as §1
# AP1G1, O43747 = biological target: AP1G1, O43747
# Protocol: as §1
# AP1M1, Q9BXS5 = biological target: AP1M1, Q9BXS5
# Protocol: as §1
# AP2A1, O95782 = biological target: AP2A1, O95782
# Protocol: as §1
# AP2A2, O94973 = biological target: AP2A2, O94973
# Protocol: as §1
# AP2B1, P63010 = biological target: AP2B1, P63010
# Protocol: as §1
# AP2M1, Q96CW1 = biological target: AP2M1, Q96CW1
# Protocol: as §1
# AP2S1, P53680 = biological target: AP2S1, P53680
# Protocol: as §1
# ARHGEF2, Q92974 = biological target: ARHGEF2, Q92974
# Protocol: as §1
# ATXN2, Q99700 = biological target: ATXN2, Q99700
# Protocol: as §1
# ATXN2L, Q8WWM7 = biological target: ATXN2L, Q8WWM7
# Protocol: as §1
# BAIAP2, Q9UQB8 = biological target: BAIAP2, Q9UQB8
# Protocol: as §1
# BCKDK, O14874 = biological target: BCKDK, O14874
# Protocol: as §1
# BOP1, Q14137 = biological target: BOP1, Q14137
# Protocol: as §1
# C19orf53, Q9UNZ5 = biological target: C19orf53, Q9UNZ5
# Protocol: as §1
# CBX8, Q9HC52 = biological target: CBX8, Q9HC52
# Protocol: as §1
# CC2D1A, Q6P1N0 = biological target: CC2D1A, Q6P1N0
# Protocol: as §1
# CCAR2, Q8N163 = biological target: CCAR2, Q8N163
# Protocol: as §1
# CCDC137, Q6PK04 = biological target: CCDC137, Q6PK04
# Protocol: as §1
# CCDC58, Q4VC31 = biological target: CCDC58, Q4VC31
# Protocol: as §1
# CCDC59, Q9P031 = biological target: CCDC59, Q9P031
# Protocol: as §1
# CDC73, Q6P1J9 = biological target: CDC73, Q6P1J9
# Protocol: as §1
# CHMP2A, O43633 = biological target: CHMP2A, O43633
# Protocol: as §1
# CHMP2B, Q9UQN3 = biological target: CHMP2B, Q9UQN3
# Protocol: as §1
# CHMP5, Q9NZZ3 = biological target: CHMP5, Q9NZZ3
# Protocol: as §1
# CKMT1A, P12532 = biological target: CKMT1A, P12532
# Protocol: as §1
# COA4, Q9NYJ1 = biological target: COA4, Q9NYJ1
# Protocol: as §1
# COA7, Q96BR5 = biological target: COA7, Q96BR5
# Protocol: as §1
# CPSF1, Q10570 = biological target: CPSF1, Q10570
# Protocol: as §1
# CPSF6, Q16630 = biological target: CPSF6, Q16630
# Protocol: as §1
# CPSF7, Q8N684 = biological target: CPSF7, Q8N684
# Protocol: as §1
# CSNK1A1, P48729 = biological target: CSNK1A1, P48729
# Protocol: as §1
# CSNK1E, P49674 = biological target: CSNK1E, P49674
# Protocol: as §1
# CSRP2, Q16527 = biological target: CSRP2, Q16527
# Protocol: as §1
# CSTF1, Q05048 = biological target: CSTF1, Q05048
# Protocol: as §1
# CSTF2, P33240 = biological target: CSTF2, P33240
# Protocol: as §1
binder,measurement,setting,value
B1,PRISMA enrichment of interactor (log2),"ACAA1, P09110",7.59
same,PRISMA enrichment of interactor (log2),"ACAT1, P24752",5.18
same,PRISMA enrichment of interactor (log2),"ACOT13, Q9NPJ3",3.97
same,PRISMA enrichment of interactor (log2),"ACOT7, O00154",5.21
same,PRISMA enrichment of interactor (log2),"AIP, O00170",4.43
same,PRISMA enrichment of interactor (log2),"ALKBH2, Q6NS38",4.38
same,PRISMA enrichment of interactor (log2),"ALKBH5, Q6P6C2",4.13
same,PRISMA enrichment of interactor (log2),"AMOT, Q4VCS5",5.76
same,PRISMA enrichment of interactor (log2),"ANXA7, P20073",4.67
same,PRISMA enrichment of interactor (log2),"AP1B1, Q10567",6.58
same,PRISMA enrichment of interactor (log2),"AP1G1, O43747",5.61
same,PRISMA enrichment of interactor (log2),"AP1M1, Q9BXS5",6.76
same,PRISMA enrichment of interactor (log2),"AP2A1, O95782",8.91
same,PRISMA enrichment of interactor (log2),"AP2A2, O94973",8.31
same,PRISMA enrichment of interactor (log2),"AP2B1, P63010",8.51
same,PRISMA enrichment of interactor (log2),"AP2M1, Q96CW1",7.87
same,PRISMA enrichment of interactor (log2),"AP2S1, P53680",5.2
same,PRISMA enrichment of interactor (log2),"ARHGEF2, Q92974",4
same,PRISMA enrichment of interactor (log2),"ATXN2, Q99700",5.94
same,PRISMA enrichment of interactor (log2),"ATXN2L, Q8WWM7",6.65
same,PRISMA enrichment of interactor (log2),"BAIAP2, Q9UQB8",5.96
same,PRISMA enrichment of interactor (log2),"BCKDK, O14874",6.49
same,PRISMA enrichment of interactor (log2),"BOP1, Q14137",4.6
same,PRISMA enrichment of interactor (log2),"C19orf53, Q9UNZ5",5.73
same,PRISMA enrichment of interactor (log2),"CBX8, Q9HC52",4.34
same,PRISMA enrichment of interactor (log2),"CC2D1A, Q6P1N0",8.93
same,PRISMA enrichment of interactor (log2),"CCAR2, Q8N163",4.94
same,PRISMA enrichment of interactor (log2),"CCDC137, Q6PK04",6.09
same,PRISMA enrichment of interactor (log2),"CCDC58, Q4VC31",5.42
same,PRISMA enrichment of interactor (log2),"CCDC59, Q9P031",5.25
same,PRISMA enrichment of interactor (log2),"CDC73, Q6P1J9",4.89
same,PRISMA enrichment of interactor (log2),"CHMP2A, O43633",7.02
same,PRISMA enrichment of interactor (log2),"CHMP2B, Q9UQN3",5.35
same,PRISMA enrichment of interactor (log2),"CHMP5, Q9NZZ3",5.76
same,PRISMA enrichment of interactor (log2),"CKMT1A, P12532",5.41
same,PRISMA enrichment of interactor (log2),"COA4, Q9NYJ1",5.2
same,PRISMA enrichment of interactor (log2),"COA7, Q96BR5",7.63
same,PRISMA enrichment of interactor (log2),"CPSF1, Q10570",3.86
same,PRISMA enrichment of interactor (log2),"CPSF6, Q16630",4.89
same,PRISMA enrichment of interactor (log2),"CPSF7, Q8N684",7.34
same,PRISMA enrichment of interactor (log2),"CSNK1A1, P48729",6.67
same,PRISMA enrichment of interactor (log2),"CSNK1E, P49674",7.09
same,PRISMA enrichment of interactor (log2),"CSRP2, Q16527",6.89
same,PRISMA enrichment of interactor (log2),"CSTF1, Q05048",5.61
same,PRISMA enrichment of interactor (log2),"CSTF2, P33240",4.76

# In another format: entries from further up.
binder	measurement	setting	value
B1	PRISMA enrichment of interactor (log2)	CHMP2B, Q9UQN3	5.35
same	PRISMA enrichment of interactor (log2)	CHMP5, Q9NZZ3	5.76
same	PRISMA enrichment of interactor (log2)	CKMT1A, P12532	5.41
